Measurements from doi:10.1101/518597.

T1: endogenous SYNPO (synaptopodin) of mature rat cortical neurons (rat (endogenous in primary cortical neurons)) (UniProt Q9Z327)
T1 sequence: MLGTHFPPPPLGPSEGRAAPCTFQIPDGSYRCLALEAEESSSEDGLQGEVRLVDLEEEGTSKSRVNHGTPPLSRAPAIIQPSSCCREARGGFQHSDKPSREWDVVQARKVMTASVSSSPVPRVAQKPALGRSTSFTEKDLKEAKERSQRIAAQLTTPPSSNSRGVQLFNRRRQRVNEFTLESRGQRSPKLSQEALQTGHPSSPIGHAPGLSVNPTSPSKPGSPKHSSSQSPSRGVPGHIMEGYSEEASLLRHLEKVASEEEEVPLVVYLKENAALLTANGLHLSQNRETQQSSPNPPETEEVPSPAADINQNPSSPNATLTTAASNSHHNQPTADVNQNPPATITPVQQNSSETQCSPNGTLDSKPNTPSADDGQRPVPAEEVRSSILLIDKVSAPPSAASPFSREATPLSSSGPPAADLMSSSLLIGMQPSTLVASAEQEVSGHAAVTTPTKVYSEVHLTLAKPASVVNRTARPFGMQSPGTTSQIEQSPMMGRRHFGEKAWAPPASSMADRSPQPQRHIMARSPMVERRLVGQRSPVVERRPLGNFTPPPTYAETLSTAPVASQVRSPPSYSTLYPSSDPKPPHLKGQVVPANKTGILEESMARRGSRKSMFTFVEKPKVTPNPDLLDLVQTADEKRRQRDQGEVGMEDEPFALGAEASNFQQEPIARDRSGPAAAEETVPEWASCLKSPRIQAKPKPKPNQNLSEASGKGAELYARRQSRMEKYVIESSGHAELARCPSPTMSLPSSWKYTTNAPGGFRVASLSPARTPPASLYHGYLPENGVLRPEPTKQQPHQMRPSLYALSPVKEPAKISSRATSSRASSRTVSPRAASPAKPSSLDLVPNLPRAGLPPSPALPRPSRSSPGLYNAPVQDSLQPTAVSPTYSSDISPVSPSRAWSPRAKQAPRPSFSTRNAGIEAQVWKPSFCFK


Tests used:
[1] = target: T1, endogenous SYNPO (synaptopodin) of mature rat cortical neurons (rat (endogenous in primary cortical neurons)); assay: co-IP
[2] = target: endogenous BAG3 of mature rat cortical neurons (rat (endogenous in primary cortical neurons)); assay: co-IP

binding [1]	binding [2]	Molecule
binds		endogenous BAG3 of mature rat cortical neurons
	binds	endogenous SYNPO (synaptopodin) of mature rat cortical neurons (protein, UniProt Q9Z327 1-931) MLGTHFPPPPLGPSEGRAAPCTFQIPDGSYRCLALEAEESSSEDGLQGEVRLVDLEEEGTSKSRVNHGTPPLSRAPAIIQPSSCCREARGGFQHSDKPSREWDVVQARKVMTASVSSSPVPRVAQKPALGRSTSFTEKDLKEAKERSQRIAAQLTTPPSSNSRGVQLFNRRRQRVNEFTLESRGQRSPKLSQEALQTGHPSSPIGHAPGLSVNPTSPSKPGSPKHSSSQSPSRGVPGHIMEGYSEEASLLRHLEKVASEEEEVPLVVYLKENAALLTANGLHLSQNRETQQSSPNPPETEEVPSPAADINQNPSSPNATLTTAASNSHHNQPTADVNQNPPATITPVQQNSSETQCSPNGTLDSKPNTPSADDGQRPVPAEEVRSSILLIDKVSAPPSAASPFSREATPLSSSGPPAADLMSSSLLIGMQPSTLVASAEQEVSGHAAVTTPTKVYSEVHLTLAKPASVVNRTARPFGMQSPGTTSQIEQSPMMGRRHFGEKAWAPPASSMADRSPQPQRHIMARSPMVERRLVGQRSPVVERRPLGNFTPPPTYAETLSTAPVASQVRSPPSYSTLYPSSDPKPPHLKGQVVPANKTGILEESMARRGSRKSMFTFVEKPKVTPNPDLLDLVQTADEKRRQRDQGEVGMEDEPFALGAEASNFQQEPIARDRSGPAAAEETVPEWASCLKSPRIQAKPKPKPNQNLSEASGKGAELYARRQSRMEKYVIESSGHAELARCPSPTMSLPSSWKYTTNAPGGFRVASLSPARTPPASLYHGYLPENGVLRPEPTKQQPHQMRPSLYALSPVKEPAKISSRATSSRASSRTVSPRAASPAKPSSLDLVPNLPRAGLPPSPALPRPSRSSPGLYNAPVQDSLQPTAVSPTYSSDISPVSPSRAWSPRAKQAPRPSFSTRNAGIEAQVWKPSFCFK

Results are given in words; binding and its absence hold for the method and conditions named. In cells and extracts the contact can be indirect. Binding calls can cover weak binding; strength is not graded here.
